The target of assay [1] is T1, cyclic RGDFC peptide.
T1 sequence (peptide, cyclic; the cysteine thiol is used to functionalise the gold nanostars): RGDFC
The experiment in a line: surface enhanced Raman scattering (SERS); cyclic RGDFC on gold nanostars incubated with FBS supplemented RPMI media and αvβ3 integrin for 2 hours; 633 nm laser excitation; both purified.

Sequences of proteins named here, by UniProt entry; tags and fusion partners are left off. A change or cut given only in a name is not applied to a line headed by its entry.
UniProt P06756: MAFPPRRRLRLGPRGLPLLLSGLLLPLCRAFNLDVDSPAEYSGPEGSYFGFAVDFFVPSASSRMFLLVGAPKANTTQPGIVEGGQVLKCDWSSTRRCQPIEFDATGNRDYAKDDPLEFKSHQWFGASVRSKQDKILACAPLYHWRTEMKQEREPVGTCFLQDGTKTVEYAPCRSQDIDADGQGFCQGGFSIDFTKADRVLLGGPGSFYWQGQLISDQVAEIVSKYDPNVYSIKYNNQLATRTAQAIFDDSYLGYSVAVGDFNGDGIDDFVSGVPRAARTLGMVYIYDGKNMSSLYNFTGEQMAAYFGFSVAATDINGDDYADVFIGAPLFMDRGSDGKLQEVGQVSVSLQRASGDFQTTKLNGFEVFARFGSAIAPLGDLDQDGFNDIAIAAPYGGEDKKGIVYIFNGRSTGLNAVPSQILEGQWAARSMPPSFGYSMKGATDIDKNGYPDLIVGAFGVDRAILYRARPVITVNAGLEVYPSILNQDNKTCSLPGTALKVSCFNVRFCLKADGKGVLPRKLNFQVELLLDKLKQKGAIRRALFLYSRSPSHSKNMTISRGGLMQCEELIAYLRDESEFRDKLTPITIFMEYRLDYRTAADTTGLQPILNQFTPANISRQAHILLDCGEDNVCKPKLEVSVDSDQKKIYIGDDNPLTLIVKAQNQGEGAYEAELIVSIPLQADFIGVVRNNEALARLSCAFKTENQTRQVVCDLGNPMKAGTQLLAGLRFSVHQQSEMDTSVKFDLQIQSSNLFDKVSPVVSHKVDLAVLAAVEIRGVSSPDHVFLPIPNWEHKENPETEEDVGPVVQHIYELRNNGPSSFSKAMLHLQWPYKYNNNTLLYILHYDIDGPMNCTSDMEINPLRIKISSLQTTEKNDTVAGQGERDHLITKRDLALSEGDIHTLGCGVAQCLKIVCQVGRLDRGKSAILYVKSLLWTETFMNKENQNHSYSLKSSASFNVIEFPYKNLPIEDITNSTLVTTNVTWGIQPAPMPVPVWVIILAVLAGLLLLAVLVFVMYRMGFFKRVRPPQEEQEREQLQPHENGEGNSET
UniProt P05106: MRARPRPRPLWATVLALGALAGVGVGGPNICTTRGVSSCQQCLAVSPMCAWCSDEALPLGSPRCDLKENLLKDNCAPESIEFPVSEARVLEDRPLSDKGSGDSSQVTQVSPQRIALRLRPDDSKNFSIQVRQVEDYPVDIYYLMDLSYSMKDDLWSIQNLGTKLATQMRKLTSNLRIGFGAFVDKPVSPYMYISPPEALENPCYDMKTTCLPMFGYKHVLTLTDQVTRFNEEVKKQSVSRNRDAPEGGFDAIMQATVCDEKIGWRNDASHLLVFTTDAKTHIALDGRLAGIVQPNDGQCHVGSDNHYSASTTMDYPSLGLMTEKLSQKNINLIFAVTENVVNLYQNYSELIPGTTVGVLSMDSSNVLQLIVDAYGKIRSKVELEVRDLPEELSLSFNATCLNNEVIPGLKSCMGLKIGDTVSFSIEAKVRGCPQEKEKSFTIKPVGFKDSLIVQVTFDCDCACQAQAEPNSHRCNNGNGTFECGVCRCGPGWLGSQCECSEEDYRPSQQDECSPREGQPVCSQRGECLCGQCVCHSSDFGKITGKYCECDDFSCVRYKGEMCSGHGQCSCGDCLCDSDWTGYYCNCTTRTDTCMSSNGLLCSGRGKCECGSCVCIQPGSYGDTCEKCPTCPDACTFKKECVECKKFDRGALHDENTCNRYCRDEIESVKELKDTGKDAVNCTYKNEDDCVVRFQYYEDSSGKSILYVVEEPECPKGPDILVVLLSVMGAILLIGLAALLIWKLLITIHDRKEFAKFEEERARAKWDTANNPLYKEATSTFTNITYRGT

The target of assay [2] is T1, cyclic RGDFC peptide. The assay is described as follows: surface enhanced Raman scattering (SERS); cyclic RGDFC on gold nanostars incubated with purified αvβ3 integrin for 2 hours; spectra analysed by multivariate curve resolution; both purified.
The target of assay [3] is T2, αvβ3 integrin on the membrane of SW620 human metastatic colon cancer cells (human (endogenous in SW620)) (UniProt P06756+P05106). The experiment in a line: surface enhanced Raman scattering (SERS) mapping of cells; receptor blocking: SW620 cells incubated with a high concentration of linear RGD peptide for 2 hours, then Au-RGDFC nanostars for 2 hours, washed, fixed, mapped at 633 nm; unblocked cells as control; only the binder purified.

The target in assay [4] is T2, αvβ3 integrin on the membrane of SW620 human metastatic colon cancer cells (human (endogenous in SW620)). The experiment in a line: surface enhanced Raman scattering (SERS) mapping of cells; Au-RGDFC nanostars added to SW620 cells in the culture dish for 2 hours, cells fixed, mapped with 1 um step, 633 nm; DCLS against the MCR spectrum of purified αvβ3 integrin; bare Au nanostars as control; only the binder purified.

These are yes or no findings as the source states them, for the method shown. Some binding calls cover weakened binding; strength is not graded here.

The results in this text go back to article PMC6369441.

As for “purified αvβ3 integrin (from UniProt P06756 31-1048; P05106 27-788) (complex)”, the binding result with cyclic RGDFC peptide [1] and with cyclic RGDFC peptide [2] was “binds” in each case.
Turning to RGDFC (cyclic; the cysteine thiol is used to functionalise the gold nanostars) [cyclic RGDFC peptide], the binding result in assay [3] and in assay [4] was “binds” each time.
